Where “and” joins values, the source holds several entries; their conditions need not be identical. Equal values may be shown once. Where a name gives a salt, the structure may show the parent alone. ± gives the standard deviation of the averaged measurements. This is one part of the list. Part of the spread comes from offsets between plates or batches.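 Assay uses culture-activated primary human stellate myofibroblasts; lipid droplet recovery indicates inactivation. Measured: proportion of Hoechst-counted cells over a plate-specific Bodipy cutoff, duplicate wells, DMSO and nortriptyline as per-plate negative and positive controls. A hit scores, control-normalized, above the plate's top-tenth-percentile nortriptyline wells or ranks among its three best wells. Final well concentrations not reported.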
Tested on: primary human hepatic stellate cells (donor 1)
Assay: percent Bodipy-positive cells; higher = more lipid droplet accumulation
Conditions: 48 h
[1] = library stock concentration: 10 mM
[2] = library stock concentration: 7.2 mM
[3] = library stock concentration: 3.33 mM
[4] = library stock concentration: 1 mM

With `CN1[C@@H]2CC[C@H]1CC(OC(=O)N1Cc3ccccc3NC1=O)C2` (stereo partly drawn) [DAU 5884 hydrochloride] the “percent Bodipy-positive cells” value [1] was 10.2 ± 2.8%.
With `C[C@@H]1O[C@@H](O[C@@H]2C[C@@H](O)[C@]3(CO)[C@H]4[C@H](O)C[C@]5(C)[C@@H](C6=CC(=O)OC6)CC[C@]5(O)[C@@H]4CC[C@]3(O)C2)[C@H](O)[C@H](O)[C@H]1O` [Ouabain] the “percent Bodipy-positive cells” value [1] was 59.48 ± 0.071%.
With `CC[C@H]1CN2CCc3cc(OC)c(OC)cc3C2C[C@@H]1CC1NCCc2cc(OC)c(OC)cc21.Cl.Cl` (stereo partly drawn) [Emetine] the “percent Bodipy-positive cells” value (library stock concentration: 3.6 mM) was 81.2 ± 3.6%.
`COc1ccc(C(CN(C)C)C2(O)CCCCC2)cc1` (stereo not drawn) [Venlafaxine HCl] was tested, and the “percent Bodipy-positive cells” value [2] was 14.2 ± 6.5%.
`COc1ccc(C(CN(C)C)C2(O)CCCCC2)cc1` (stereo not drawn) [Venlafaxine] was tested, and the “percent Bodipy-positive cells” value [3] was 22.8 ± 8% and the “percent Bodipy-positive cells” value [2] was 28.5 ± 3.3%.
For `COc1ccc(C(CN(C)C)C2(O)CCCCC2)cc1` (stereo not drawn) [Venlafaxine hydrochloride], the “percent Bodipy-positive cells” value [1] was 57.2 ± 7.4%.
In the case of `COc1ccc(C(CN(C)C)C2(O)CCCCC2)cc1` (stereo not drawn), the “percent Bodipy-positive cells” value [1] is reported as 27.5 ± 14%.
In the case of `Cc1o[nH]c(=O)c1CC(N)C(=O)O` (stereo not drawn) [(?)-AMPA hydrobromide], the “percent Bodipy-positive cells” value [1] is reported as 51.3 ± 8.5%.
For `CS(=O)(=O)O.Oc1ccc2c3c1O[C@H]1c4oc5ccccc5c4C[C@@]4(O)C(C2)N(CC2CC2)CC[C@]314` [Naltriben mesylate], the “percent Bodipy-positive cells” value [1] was 74.9 ± 1.4%.
In the case of `CNC(=O)Oc1ccc2c(c1)[C@]1(C)CCN(C)[C@@H]1N2C` [Eserine sulfate, physostigmine sulfate], the “percent Bodipy-positive cells” value is reported as 26.3 ± 5.2%.
For `CNC(=O)Oc1ccc2c(c1)[C@]1(C)CCN(C)[C@@H]1N2C` [(-)-Physostigmine], the “percent Bodipy-positive cells” value [1] was 47.2 ± 13%.
In the case of `CNC(=O)Oc1ccc2c(c1)[C@]1(C)CCN(C)[C@@H]1N2C` [Physostigmine], the “percent Bodipy-positive cells” value [1] is reported as 12% and 23%.
For `CNC(=O)Oc1ccc2c(c1)[C@]1(C)CCN(C)[C@@H]1N2C` [Physostigmine sulfate], the “percent Bodipy-positive cells” value (library stock concentration: 7.3 mM) was 11.2 ± 0.9%.
In the case of `CNC(=O)Oc1ccc2c(c1)[C@]1(C)CCN(C)[C@@H]1N2C` [Physostigmine salicylate], the “percent Bodipy-positive cells” value (library stock concentration: 4.8 mM) is reported as 3.87 ± 0.68% and the “percent Bodipy-positive cells” value [1] is reported as 20.9 ± 7.7%.
In the case of `CCN(CC)CCOC(=O)C(O)(c1ccccc1)c1ccccc1`, the “percent Bodipy-positive cells” value [1] is reported as 9.45 ± 6.3%.
With `Cc1onc(O)c1C[C@H](N)C(=O)O` the “percent Bodipy-positive cells” value [1] was 7.1 ± 3.7%.
For `CCCCC/C=C\C/C=C\C/C=C\C/C=C\CCCC(=O)NCCOP(=O)(O)O` [Arachidonoyl Ethanolamide Phosphate], the “percent Bodipy-positive cells” value [4] was 13 ± 0.45%.
In the case of `CN1[C@H]2C[C@H](OC(=O)[C@H](CO)c3ccccc3)C[C@@H]1[C@@H](O)C2`, the “percent Bodipy-positive cells” value [1] is reported as 39.9 ± 4.6%.
`CN1[C@H]2C[C@H](OC(=O)[C@H](CO)c3ccccc3)C[C@@H]1[C@@H](O)C2` [Anisodamine] was tested, and the “percent Bodipy-positive cells” value [1] was 25.1 ± 1.1%.
`O=C(O)CCC(CP(=O)(O)O)C(=O)O` (stereo not drawn) [PMPA (NAALADase inhibitor)] was tested, and the “percent Bodipy-positive cells” value [1] was 7.05 ± 1.2%.
`CN(C)C(=O)Oc1cccc([N+](C)(C)C)c1` [Neostigmine bromide] was tested, and the “percent Bodipy-positive cells” value was 25.9 ± 1.2%, the “percent Bodipy-positive cells” value (library stock concentration: 6.6 mM) was 2.4 ± 0.66% and the “percent Bodipy-positive cells” value [1] was 10.1% and 31.3%.
For `CC(C)(C)OC(=O)c1ncn2c1[C@@H]1CCCN1C(=O)c1c(Br)cccc1-2` [Bretazenil], the “percent Bodipy-positive cells” value [1] was 3.33 ± 0.55%.
In the case of `C=C(C)[C@@H]1CCC(C)=C[C@H]1c1c(OC)cc(CCCCC)cc1OC` [Cannabidiol dimethyl ether], the “percent Bodipy-positive cells” value [4] is reported as 13.5 ± 6%.
`CCOC(=O)c1ncc2[nH]c3ccc(OCc4ccccc4)cc3c2c1COC` was tested, and the “percent Bodipy-positive cells” value [1] was 22.6 ± 9.1%.
For `NP(N)(=O)NC(=O)c1ccc(F)cc1`, the “percent Bodipy-positive cells” value [1] was 36.8 ± 4.4%.
`NP(N)(=O)NC(=O)c1ccc(F)cc1` [Flurofamide] was tested, and the “percent Bodipy-positive cells” value [1] was 8.19 ± 0.99%.
In the case of `CC(C)(N)Cc1ccccc1` [Phentermine], the “percent Bodipy-positive cells” value (library stock concentration: 13.4 mM) is reported as 23.6 ± 0.33%.
For `COc1ccc(C(=O)c2c(C)n(CCN3CCOCC3)c3ccccc23)cc1` [Pravadoline], the “percent Bodipy-positive cells” value (library stock concentration: 5.3 mM) was 11.9 ± 3.7%.
In the case of `CCCCC(C#N)(Cn1cncn1)c1ccc(Cl)cc1` (stereo not drawn) [Myclobutanil], the “percent Bodipy-positive cells” value (library stock concentration: 6.9 mM) is reported as 9.55 ± 1.8%.
With `Clc1cccc(SC2CCNCC2)n1` [Anpirtoline hydrochloride] the “percent Bodipy-positive cells” value [1] was 20.9 ± 7.2%.
With `O=c1c2ccccc2[se]n1-c1ccccc1` [Ebselen] the “percent Bodipy-positive cells” value was 85.2 ± 15%.
With `CCc1c(C(=O)C(N)=O)c2c(OCC(=O)O)cccc2n1Cc1ccccc1` the “percent Bodipy-positive cells” value [3] was 6.5 ± 2% and the “percent Bodipy-positive cells” value [1] was 22.1 ± 6.9%.
For `Cc1[nH]nc2ccc(-c3cncc(OC[C@@H](N)Cc4c[nH]c5ccccc45)c3)cc12`, the “percent Bodipy-positive cells” value (library stock concentration: 80 uM) was 41.6 ± 3.8%, the “percent Bodipy-positive cells” value (library stock concentration: 2 mM) was 99.49 ± 0.72% and the “percent Bodipy-positive cells” value [1] was 100%.
In the case of `CCCCCC(/C=C/C=O)OO` (stereo not drawn) [4-hydroperoxy 2-Nonenal], the “percent Bodipy-positive cells” value [4] is reported as 19.7 ± 7.2%.
`Cc1sc2c(c1C)C(c1ccc(Cl)cc1)=N[C@@H](CC(=O)Nc1ccc(O)cc1)c1nnc(C)n1-2` was tested, and the “percent Bodipy-positive cells” value [3] was 55 ± 16% and the “percent Bodipy-positive cells” value [1] was 54 ± 12%.
`CCNCC(O)c1cccc(O)c1` (stereo not drawn) [Etilefrine hydrochloride] was tested, and the “percent Bodipy-positive cells” value was 9.23 ± 1.9%.
For `NC(=NN=Cc1ccc(-c2cccc([N+](=O)[O-])c2)o1)N[N+](=O)[O-]` [ERK Inhibitor III], the “percent Bodipy-positive cells” value [3] was 11.5 ± 1.2%.
For `CCCCCCCCCCCCCCCCSP(=O)([O-])OCC[N+](C)(C)C` [thio-Miltefosine], the “percent Bodipy-positive cells” value [4] was 14.1 ± 7.8%.
For `O=c1c2ccccc2[se]n1-c1ccccc1`, the “percent Bodipy-positive cells” value [1] was 85.3 ± 1.6%.
For `CN1C2CCC1CC(OC(c1ccccc1)c1ccc(Cl)cc1)C2.Cl` (stereo not drawn), the “percent Bodipy-positive cells” value [1] was 98.89 ± 0.66%.
For `CN1CCc2cc3c(cc2C1O)OCO3` (stereo not drawn) [Hydrastinine hydrochloride], the “percent Bodipy-positive cells” value was 26.5 ± 7.5%.
With `CCCCCCC(=O)O[C@H]1CC[C@H]2[C@@H]3CC(=O)C4=CC(=O)CC[C@]4(C)[C@H]3CC[C@]12C` [6-keto Testosterone Enanthate] the “percent Bodipy-positive cells” value [4] was 19.2 ± 7.4%.
In the case of `COc1ccc2c(c1OC)C(=O)OC2C1c2cc3c(cc2CCN1C)OCO3` (single isomer, unassigned; (+)) [(+)-Hydrastine], the “percent Bodipy-positive cells” value [1] is reported as 42.2 ± 3.4%.
`CCN(CC)CCO[C@H]1CC[C@@]2(C)C(=CC[C@@H]3[C@@H]2CC[C@]2(C)C(=O)CC[C@@H]32)C1.Cl` was tested, and the “percent Bodipy-positive cells” value [1] was 80.2 ± 2.6%.
With `CCOP(=S)(OCC)Oc1ccc2c(C)c(Cl)c(=O)oc2c1` the “percent Bodipy-positive cells” value [1] was 26.8 ± 3.8%.
For `O=C1C=CC(=O)C=C1` [p-Benzoquinone], the “percent Bodipy-positive cells” value [1] was 30.2 ± 8.1%.
With `Cn1c2c(c3ccccc31)CCNCC2` the “percent Bodipy-positive cells” value [1] was 29.1 ± 3.3%.
In the case of `CCCCC/C=C\C/C=C\C/C=C\CCCCCCC(=O)NCCO` [Dihomo-.gamma.-Linolenoyl Ethanolamide], the “percent Bodipy-positive cells” value [4] is reported as 7.62 ± 0.9%.
With `c1ccc2c(c1)Sc1ccccc1N2CC1CN2CCC1CC2` (stereo not drawn) the “percent Bodipy-positive cells” value [1] was 96.494 ± 0.033%.
For `FC(F)(F)c1cccc(N2CCNCC2)c1`, the “percent Bodipy-positive cells” value [1] was 56.9 ± 7.9%.
`C[C@H]1CNCCc2ccc(Cl)cc21` [Lorcaserin HCl] was tested, and the “percent Bodipy-positive cells” value [3] was 25 ± 8.6% and the “percent Bodipy-positive cells” value [1] was 64.4 ± 0.28%.
`CNCCCCCCN(C)N(O)N=O` was tested, and the “percent Bodipy-positive cells” value [4] was 7.39 ± 0.95%.
With `CC(=O)[C@H]1CC[C@H]2[C@@H]3CC[C@H]4C[C@H](O)CC[C@]4(C)[C@H]3C(=O)C[C@]12C` [5alpha-Pregnan-3alpha-ol-11,20-dione] the “percent Bodipy-positive cells” value [1] was 36.8 ± 10%.
In the case of `CC(=O)[C@H]1CC[C@H]2[C@@H]3CC[C@H]4C[C@H](O)CC[C@]4(C)[C@H]3C(=O)C[C@]12C` [Alfaxalone], the “percent Bodipy-positive cells” value is reported as 10.8 ± 1.9%.

Reference: the supplement of paper PMC9135407
